Measurements published in article PMC7851568.
No constants are given. Whether binding was seen depends on the method and setting. Binding seen in cells or lysates may run through a third protein. Some entries that bind do so weakly or less than the wild type.

Amino acid sequences for entries named in this document (tags omitted).
UniProt P49327: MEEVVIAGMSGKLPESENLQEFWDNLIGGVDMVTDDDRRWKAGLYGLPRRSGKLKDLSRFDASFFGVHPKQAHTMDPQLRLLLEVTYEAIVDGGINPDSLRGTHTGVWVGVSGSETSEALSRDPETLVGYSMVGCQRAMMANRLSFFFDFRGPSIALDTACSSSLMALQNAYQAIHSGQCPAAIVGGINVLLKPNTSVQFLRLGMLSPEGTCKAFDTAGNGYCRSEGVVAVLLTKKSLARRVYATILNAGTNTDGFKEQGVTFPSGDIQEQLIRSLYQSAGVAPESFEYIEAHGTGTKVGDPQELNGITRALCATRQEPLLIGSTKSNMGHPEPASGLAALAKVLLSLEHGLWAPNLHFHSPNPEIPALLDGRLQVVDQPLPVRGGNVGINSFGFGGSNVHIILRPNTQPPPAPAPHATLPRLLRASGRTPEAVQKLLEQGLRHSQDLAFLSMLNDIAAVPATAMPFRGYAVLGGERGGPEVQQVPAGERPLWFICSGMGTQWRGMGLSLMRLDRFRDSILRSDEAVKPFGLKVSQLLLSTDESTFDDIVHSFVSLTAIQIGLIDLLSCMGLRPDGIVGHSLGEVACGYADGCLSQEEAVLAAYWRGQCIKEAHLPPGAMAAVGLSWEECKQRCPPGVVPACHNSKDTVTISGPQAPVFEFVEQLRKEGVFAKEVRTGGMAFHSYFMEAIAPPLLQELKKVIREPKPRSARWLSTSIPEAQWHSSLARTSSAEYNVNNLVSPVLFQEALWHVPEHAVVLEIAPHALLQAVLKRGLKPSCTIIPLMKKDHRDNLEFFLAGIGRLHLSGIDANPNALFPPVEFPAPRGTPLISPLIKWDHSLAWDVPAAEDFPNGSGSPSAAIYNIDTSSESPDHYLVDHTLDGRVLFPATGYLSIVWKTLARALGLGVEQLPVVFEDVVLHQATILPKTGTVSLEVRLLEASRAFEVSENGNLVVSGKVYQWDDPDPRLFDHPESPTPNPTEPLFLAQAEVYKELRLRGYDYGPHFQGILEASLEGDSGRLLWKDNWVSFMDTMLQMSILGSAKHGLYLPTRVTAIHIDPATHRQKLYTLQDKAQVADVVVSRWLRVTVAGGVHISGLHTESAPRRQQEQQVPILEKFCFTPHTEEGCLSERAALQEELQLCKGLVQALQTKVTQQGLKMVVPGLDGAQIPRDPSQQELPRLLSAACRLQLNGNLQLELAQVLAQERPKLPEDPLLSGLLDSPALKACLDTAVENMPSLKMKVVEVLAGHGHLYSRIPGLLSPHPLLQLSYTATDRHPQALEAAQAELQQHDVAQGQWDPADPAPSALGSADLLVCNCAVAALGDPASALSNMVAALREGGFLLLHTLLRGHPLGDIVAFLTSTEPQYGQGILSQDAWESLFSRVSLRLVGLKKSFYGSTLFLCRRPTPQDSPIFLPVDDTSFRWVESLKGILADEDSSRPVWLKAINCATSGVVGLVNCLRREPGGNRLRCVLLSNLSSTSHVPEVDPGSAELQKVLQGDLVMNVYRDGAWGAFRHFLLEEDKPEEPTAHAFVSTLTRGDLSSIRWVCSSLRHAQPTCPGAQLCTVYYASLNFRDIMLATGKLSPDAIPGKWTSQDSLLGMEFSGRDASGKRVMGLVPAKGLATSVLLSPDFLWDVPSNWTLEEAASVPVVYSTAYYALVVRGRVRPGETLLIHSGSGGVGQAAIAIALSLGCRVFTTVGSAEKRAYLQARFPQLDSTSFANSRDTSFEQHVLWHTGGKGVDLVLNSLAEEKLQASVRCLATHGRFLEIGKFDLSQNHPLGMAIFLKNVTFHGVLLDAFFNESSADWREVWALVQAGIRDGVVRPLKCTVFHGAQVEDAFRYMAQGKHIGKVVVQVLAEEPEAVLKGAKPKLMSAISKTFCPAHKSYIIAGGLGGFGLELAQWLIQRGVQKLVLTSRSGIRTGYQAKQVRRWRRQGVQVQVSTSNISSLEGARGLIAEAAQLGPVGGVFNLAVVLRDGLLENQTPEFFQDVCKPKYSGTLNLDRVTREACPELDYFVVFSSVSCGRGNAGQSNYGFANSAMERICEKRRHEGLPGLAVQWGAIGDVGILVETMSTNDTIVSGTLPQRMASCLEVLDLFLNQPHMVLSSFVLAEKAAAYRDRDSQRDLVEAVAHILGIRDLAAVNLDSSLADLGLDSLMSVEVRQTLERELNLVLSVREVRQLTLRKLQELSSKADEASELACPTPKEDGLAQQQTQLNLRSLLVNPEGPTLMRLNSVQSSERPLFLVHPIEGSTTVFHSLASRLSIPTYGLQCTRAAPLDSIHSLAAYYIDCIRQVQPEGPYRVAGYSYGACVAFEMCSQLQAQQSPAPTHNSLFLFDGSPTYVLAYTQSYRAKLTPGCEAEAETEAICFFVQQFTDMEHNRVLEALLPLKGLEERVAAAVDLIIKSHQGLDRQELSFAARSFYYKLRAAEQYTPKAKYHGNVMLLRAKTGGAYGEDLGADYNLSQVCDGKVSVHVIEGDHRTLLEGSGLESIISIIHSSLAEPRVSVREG

Target: fatty acid synthase (human (endogenous in DG75)) (UniProt P49327)
Assay: co-IP; lysate of 10 million LMP1- (empty vector) or LMP1+ DG75 cells in RIPA buffer; 10 ug polyclonal rabbit anti-FASN or normal rabbit IgG, protein A magnetic beads, overnight at 4°C; immunoblot for FASN and USP2a

B1: ubiquitin-specific peptidase 2a (enzyme, UniProt O75604-1 1-605)
chain: MSQLSSTLKRYTESARYTDAHYAKSGYGAYTPSSYGANLAASLLEKEKLGFKPVPTSSFLTRPRTYGPSSLLDYDRGRPLLRPDITGGGKRAESQTRGTERPLGSGLSGGSGFPYGVTNNCLSYLPINAYDQGVTLTQKLDSQSDLARDFSSLRTSDSYRIDPRNLGRSPMLARTRKELCTLQGLYQTASCPEYLVDYLENYGRKGSASQVPSQAPPSRVPEIISPTYRPIGRYTLWETGKGQAPGPSRSSSPGRDGMNSKSAQGLAGLRNLGNTCFMNSILQCLSNTRELRDYCLQRLYMRDLHHGSNAHTALVEEFAKLIQTIWTSSPNDVVSPSEFKTQIQRYAPRFVGYNQQDAQEFLRFLLDGLHNEVNRVTLRPKSNPENLDHLPDDEKGRQMWRKYLEREDSRIGDLFVGQLKSSLTCTDCGYCSTVFDPFWDLSLPIAKRGYPEVTLMDCMRLFTKEDVLDGDEKPTCCRCRGRKRCIKKFSIQRFPKILVLHLKRFSESRIRTSKLTTFVNFPLRDLDLREFASENTNHAVYNLYAVSNHSGTTMGGHYTAYCRSPGTGEWHTFNDSSVTPMSSSQVRTSDAYLLFYELASPPSRM
binding: binds
